Measured values reported in patent publication US20190154879A1, “Silicone Hydrogel Contact Lenses Having Improved Lubricity” (CooperVision International Holding Company, LP, priority 2016, published 2019).

What was measured:
[1] = Surfactant screening: kinetic coefficient of friction (CoF) of Lens-1 after overnight surfactant soak and overnight PBS wash; details: soaked overnight, then 4 mL PBS overnight at room temperature, average n=3
[2] = Surfactant screening: kinetic coefficient of friction (CoF) of Lens-2 after overnight surfactant soak and overnight PBS wash; details: soaked overnight, then 4 mL PBS overnight at room temperature, average n=3

Row | Molecule | Lens-1 CoF ([1]; surfactant 0.1 wt. % in PBS) | Lens-2 CoF ([2]; surfactant 0.1 wt. % in PBS) | Lens-1 CoF ([1]; surfactant 0.5 wt. % in PBS) | Lens-2 CoF ([2]; surfactant 0.5 wt. % in PBS)
1 | CCCCCCCCCC[N+](C)(C)CCCS(=O)(=O)[O-] [Zwittergent 3-10] | 0.98 | 1.08 |  | 
2 | Coco betaine |  |  | 0.29 | 0.78
3 | PEG-7 glyceryl cocoate |  |  | 0.09 | 0.75
4 | tyloxapol | 0.09 | 0.23 |  | 
